# Source: US6815421B1 (Osteopharm Inc., priority 2001, dated 2004)
# Assay: peptide made by a vendor
# Details: whole synthesis
substance,measurement,value
"Xaa1-Thr-GIn-Glu-His-Thr-Ala-Glu-Cys-Xaa10, where Xaa1 is N-acetyl arginine and Xaa10 is lysinamide",final HPLC purity,at least 95% pure
